Laboratory results: PubChem BioAssay AID720533 (National Center for Advancing Translational Sciences (NCATS), 2013)
Hit rate of the full screen: of about 18,000 compounds, about 750 (4.2%) were called active. Listed are the inconclusive results; actives and inactives stand elsewhere. Calls follow the shape of the full dose curve; tested in HEK293 cells.

Assay: qHTS for Inhibitors of binding or entry into cells for Lassa Virus
Settings: Lassa virus pseudotyped entry inhibition, cell-based qHTS
Potency is read from the fitted curve at half-maximal effect.

SMILES | Potency
CN(CCCl)CCCl | inconclusive: 20 µM
CCC(=O)N(c1ccccc1)C1CCN(CCc2ccccc2)CC1 | inconclusive: 39.8 µM
CCC(=O)N(c1ccccc1)C1(COC)CCN(CCc2cccs2)CC1 | inconclusive: 50.1 µM
